The inconclusive results got no clear call from the source; some entries with a clear call stand among them for comparison. Calls of active or inactive are those of the source. The rule behind the calls is not given here.
Assay: inhibitors of control reporter signal in H4 cells – cell-based, plate reader, dry powder samples, counter-screen for prion reporter project, dose response (AID 540255)
Conditions: H4 neuroglioma control reporter; at 5 µM (top of the series)

SMILES | activity change, negative = inhibition
Cc1cccc(C(=O)O/N=C(\N)c2ccccn2)c1 | inactive: -42.2%
COc1ccc(N=CC2=C(O)c3ccccc3C2=O)c(OC)c1 | inactive: -51.1%
COc1cc(NC(=O)c2cccs2)c(C(=O)OCC(=O)c2cc(C)n(-c3ccccc3)c2C)cc1OC | inconclusive: -55.4%
COC(=O)c1[nH]c2c(c1C)C(=O)CC(c1cccc(OC)c1)C2 (stereo unspecified) | inconclusive: -79.7%
C=CCn1c(SCc2c(C)noc2C)nc2ccccc2c1=O | inconclusive: -76.2%
Cc1ccc(C(=O)O/N=C(\N)c2ccccn2)cc1 | inconclusive: -74.7%
